# The inconclusive results got no clear call from the source; some entries with a clear call stand among them for comparison. Potencies beside an inconclusive call are fits to weak or partial responses and may not hold up. The source made the active and inactive calls. Rule for the calls: active = hit-call score of the fitted dose curve at least 0.9, where 1 is the maximum; inconclusive = response in the unintended direction; inactive = score below 0.9.
# The chains behind the UniProt entries cited, without tags or fusion partners.
# UniProt P00519, whole entry, looked up: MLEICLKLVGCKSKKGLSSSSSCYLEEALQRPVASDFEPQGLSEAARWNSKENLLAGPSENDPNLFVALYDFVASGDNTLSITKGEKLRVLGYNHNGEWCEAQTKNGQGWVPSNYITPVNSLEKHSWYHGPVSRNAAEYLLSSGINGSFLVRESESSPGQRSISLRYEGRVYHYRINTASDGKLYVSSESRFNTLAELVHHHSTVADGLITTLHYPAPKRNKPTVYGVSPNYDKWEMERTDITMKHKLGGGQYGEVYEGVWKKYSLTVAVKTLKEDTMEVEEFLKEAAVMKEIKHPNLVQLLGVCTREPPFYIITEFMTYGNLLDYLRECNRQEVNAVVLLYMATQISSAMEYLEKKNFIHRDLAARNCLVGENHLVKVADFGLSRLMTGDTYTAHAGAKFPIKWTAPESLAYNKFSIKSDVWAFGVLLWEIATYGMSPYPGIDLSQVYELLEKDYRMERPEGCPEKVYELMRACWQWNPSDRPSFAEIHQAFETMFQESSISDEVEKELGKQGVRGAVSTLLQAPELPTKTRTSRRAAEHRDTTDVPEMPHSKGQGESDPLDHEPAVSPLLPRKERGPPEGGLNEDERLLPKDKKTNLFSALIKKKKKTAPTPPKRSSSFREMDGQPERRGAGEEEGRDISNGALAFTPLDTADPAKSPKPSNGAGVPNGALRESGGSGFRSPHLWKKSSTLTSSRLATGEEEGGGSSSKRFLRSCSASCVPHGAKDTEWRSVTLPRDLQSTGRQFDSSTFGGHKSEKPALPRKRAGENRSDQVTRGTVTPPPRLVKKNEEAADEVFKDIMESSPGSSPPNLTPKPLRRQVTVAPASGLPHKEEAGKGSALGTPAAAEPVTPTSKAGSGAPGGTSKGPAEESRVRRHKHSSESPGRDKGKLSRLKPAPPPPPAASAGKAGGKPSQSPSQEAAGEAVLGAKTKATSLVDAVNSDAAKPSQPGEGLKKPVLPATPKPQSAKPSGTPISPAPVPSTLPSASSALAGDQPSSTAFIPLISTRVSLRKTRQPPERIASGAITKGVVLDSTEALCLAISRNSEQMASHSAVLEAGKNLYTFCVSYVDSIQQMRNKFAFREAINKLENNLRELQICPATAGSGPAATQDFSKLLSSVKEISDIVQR
# Target: Tyrosine-protein kinase ABL1 (Homo sapiens) (UniProt P00519)
# Test: NVS_ENZ_hAbl: NovaScreen (NVS) Enzymatic Assay for human ABL proto-oncogene 1, non-receptor tyrosine kinase
# Protocol: NVS_ENZ_hAbl is a biochemical, single-readout assay that uses extracted gene-proteins in a cell-free assay. Measurements were taken 1 hour after chemical dosing in a 96-well plate.NVS_ENZ_hAbl is one of one assay component(s) measured or calculated from the NVS_ENZ_hAbl assay. It is designed to make measurements of enzyme activity, a form of enzyme reporter, as detected with fluorescence intensity signals by Fluorescence and electrophoretic mobility shift technology.Data from the assay component NVS_ENZ_hAbl was analyzed into 1 assay endpoint. This assay endpoint, NVS_ENZ_hAbl, was analyzed in the positive analysis fitting direction relative to DMSO as the negative control and baseline of activity. Using a type of enzyme reporter, loss-of-signal activity can be used to understand changes in the enzymatic activity as they relate to the gene ABL1. Furthermore, this assay endpoint can be referred to as a primary readout, because this assay has produced multiple assay endpoints where this one serves a enzymatic activity function. To generalize the intended target to other relatable targets, this assay endpoint is annotated to the kinase intended target family, where the subfamily is non-receptor tyrosine kinase.
# Binding assays used specific radioligands (tritiated, iodinated) with non-radioactive competitive displacement ligands in agonist or antagonist protocols (as indicated) and various reference compounds and inhibitors to titrate specific binding to receptors and transporters. Most enzyme assays (CYPs, kinases, phosphatases, proteases, HDACs) used recombinant protein and specific substrates (fluorescence mostly, some colorimetric and radioactive) and inhibitors, followed by a biochemical separation of substrate and product. All assays for the biochemical HTS were initially run in duplicate at a single concentration (10 uM for CYP450 assays and 25 uM for all others). Assay-chemical combinations meeting a pre-defined threshold (e.g., 30% inhibition and other criteria defined below) were then run in singleton concentration-response format with maximum concentration of 20 uM for CYPs and 50 uM for all others. Each assay was run with positive and negative controls, and concurrent controls on every plate. The follow-up (secondary) screen tested active chemical-pairs in concentration series, as well as a few additional assays not tested in the primary screen, some selected negative inactives, and several cases re-run in the concentration series for confirmatory purposes.
Compound,AC50,outcome
S=C1NCCN1,inconclusive: 8.98 µM,
O=C(Nc1ccccc1)Nc1cnns1,,inactive
COC(=O)c1ccccc1S(=O)(=O)NC(=O)N(C)c1nc(C)nc(OC)n1,inconclusive: 25 µM,
CNC(=S)S,inconclusive: 25 µM,
CCCCNC(=O)n1c(NC(=O)OC)nc2ccccc21,,inactive
O=C(O)C(F)(F)C(F)(F)C(F)(F)C(F)(F)C(F)(F)C(F)(F)C(F)(F)F,,inactive
